Here are results for 66 compounds from PubChem BioAssay AID662 (National Center for Advancing Translational Sciences (NCATS), 2007).

Where “and” joins values, the source holds several entries; their conditions need not be identical. Equal values may be shown once. The list shows a part of the results. Shown are side measurements of this screen, not its main read-out; they come without a call. Most of these compounds were active or inconclusive in the main read-out, so they are no random draw. The note in brackets gives the kind of curve behind each potency; many fits are weak.

For orientation: AC50 means the concentration giving half of the maximal activity seen.

The experiment can be described thus: Cell signaling CRE-BLA (Fsk stim). The settings on record: CHO CRE-bla reporter (cAMP response element driving beta-lactamase), forskolin EC10, beta-lactamase ratio; measured here: 460 nm blue channel. The text has this: NIH Molecular Libraries Screening Centers Network [MLSCN]
NIH Chemical Genomics Center [NCGC]
Assay Provider: Marshall W. Nirenberg, U.S. National heart lung & blood institute
Memories persist for different lengths of time, from seconds or minutes to a lifetime. There are two kinds of memory: short-term memory (STM) and long-term memory (LTM). STM lasts for minutes to hours, which maybe mediated by modifications of molecules involved in synaptic functions. LTM lasts for days or longer, and may be due to the formation of new synapses or restructuring of existing synapses. LTM, but not STM, requires gene transcription and synthesis of proteins. CREB (cyclic-AMP Responsive Element Binding Protein) is one of the candidates plays an important role for enhancement of some types of LTM. CREB, a family of transcription factors, regulates the transcription of genes containing cAMP Responsive Elements (CRE). CRE is a nucleotide sequence often found in the promoter regions of genes that are binding sites for CREB.
Using a beta-lactamase reporter-gene under control of cAMP responsive element, a cell-based assay [CellSensor(TM) CRE-bla CHO developed by Invitrogen Corp.] was used to measure forskolin-induced signaling. Library compounds were measured for their ability to modulate positively or negatively the action of EC10 NKH 477, a water soluble forskolin, on reporter gene activity. Compounds were screened in a titration series in 1536-well format. Positive and negative modulators were identified based on the AC50 values derived from the screening data.
NCGC Assay Protocol Summary
2000 cells/5uL in Opti-MEM medium containing 0.5% dialyzed FBS, 0.1 mM NEAA, 1 mM sodium pyruvate and 10 mM HEPES was dispensed into 1536-well plates and cells were cultured at 37 degrees Celsius overnight. […] And then the plates were incubated at 37 degrees Celsius for 3 hours. 1 uL of CCF4-dye mixture was added to each well. After incubated at room temperature for 2 hours the plates were measured on an EnVision plate reader at Excitation 405nm, Emission1=460nm and Emission 2=530nm. The %Activity was determined from the ratio of 460nm/530nm.
Keywords: NIH Roadmap, MLSCN, MLSMR, qHTS, NCGC, CRE, beta-lactamase reporter-gene assay.
As to `CC(C)Sc1ncnc2c1oc1ccccc12`, the AC50 was 12.6 µM [rising, partial curve].

As for `CCOC(=O)c1c(NC(=O)c2cccs2)sc(C)c1CC`, the half-maximal activity concentration (AC50) is 7.94 µM [rising, partial curve].

Regarding `COc1cccc(C(c2nnnn2C(C)(C)C)N2CCN(C3CCCCC3)CC2)c1OC` (stereo unspecified), the AC50 was 0.501 µM [falling, full curve].

Turning to `COc1ccccc1-c1c(C)nn2c(N3CCCCCC3)cc(C)nc12`, the concentration at half-maximal activity (AC50) was 15.8 µM [falling, single point].

On to `Cc1cccc(NC(=O)c2cc(-c3ccco3)nc3ccccc23)n1`, for which the AC50 is 15.8 µM [rising, single point].

Consider `COc1ccc(C)cc1-n1nnnc1SCc1cn2ccsc2n1`, for which the AC50 is 15.8 µM [rising, single point].

Take `Nc1c(C(=O)NC2CC2)c2nc3ccccc3nc2n1-c1ccc2c(c1)OCO2`: the AC50 was 7.94 µM [rising, partial curve].

`CCCc1c(-c2ccc(O)cc2)nn(-c2ccc(O)cc2)c1-c1ccc(O)cc1`: the AC50 is 15.8 µM [falling, partial curve].

For `Cc1c(N=Cc2ccncc2)c(=O)n(-c2ccccc2)n1C`, the half-maximal activity concentration (AC50) is 0.00398 µM [rising, full curve, poor fit].

Consider `COc1ccc2nc3c(c([Si](C)(C)C(C)(C)C)c2c1)Cn1c-3cccc1=O`, for which the half-maximal activity concentration (AC50) is 12.6 µM [rising, single point].

As for `COC(=O)c1cc(OC)c(OC)cc1NC(=O)CN1CCOCC1`, the half-maximal activity concentration (AC50) was 10 µM [rising, partial curve].

As to `CC12CN3CC(C)(CN(C1)C3c1ccc3ccccc3c1O)C2=O` (stereo unspecified), the AC50 is 15.8 µM [falling, single point].

On to `Oc1c(Cl)cc(Cl)c(Cl)c1Cc1c(O)c(Cl)cc(Cl)c1Cl`, for which the concentration at half-maximal activity (AC50) was 0.251 µM [falling, full curve].

With `CC(C)[C@@H]1N[C@]2(C(=O)Nc3ccccc32)[C@@H]2C(=O)N(c3cccc(C(F)(F)F)c3)C(=O)[C@@H]21`, the AC50 is 0.00794 µM [falling, full curve, poor fit].

As to `Cc1ccc(OC(=O)NC2CCS(=O)(=O)C2)cc1C` (stereo unspecified), the AC50 is 3.16 µM [falling, full curve, poor fit].

For `COc1ccc(-n2c(SCC(=O)c3c(N)n(C)c(=O)n(C)c3=O)nc3ccccc32)cc1`, the half-maximal activity concentration (AC50) is 10 µM [rising, partial curve].

With `CCCCC(=O)OCCNC(=O)c1cc2ccccc2oc1=O`, the AC50 is 0.00316 µM [falling, full curve, poor fit].

Consider `COc1cccc(N2C(=O)C3C(C2=O)C2C=CC3C23CC3)c1` (stereo unspecified), for which the AC50 is 1 µM [falling, partial curve].

For `O=C(COc1ncnc2ccccc12)N1CCOCC1`, the concentration at half-maximal activity (AC50) is 5.01 µM [falling, single point].

With `COc1ccc(-c2noc(CCC(=O)Nc3cc(Cl)c(OC)cc3OC)n2)cc1`, the AC50 is 1 µM [falling, partial curve, poor fit].

On to `COc1ccc(CCNC(=O)C2=COCCO2)cc1`, for which the concentration at half-maximal activity (AC50) is 0.126 µM [falling, partial curve, poor fit].

As to `COc1ccc(-c2cc(C(F)F)n3ncc(C(=O)N4CCSCC4)c3n2)cc1`, the AC50 was 12.6 µM [rising, partial curve].

With `CS(=O)(=O)Nc1cccc(-c2ccc3ncnc(NC4CC4)c3c2)c1`, the AC50 is 7.94 µM [rising, partial curve].

For the compound `COc1ccc(NC(=O)c2cnc3ccccn3c2=O)cc1OC`, the half-maximal activity concentration (AC50) is 7.94 µM [rising, partial curve].

For `O=C(Nc1nccs1)c1cnccn1`, the half-maximal activity concentration (AC50) is 0.0501 µM [falling, full curve].

On to `Cc1c(C(=O)NCc2ccco2)sc2nc(-c3ccccc3)cn12`, for which the AC50 is 6.31 µM [rising, partial curve].

Consider `CCOC(=O)c1c(NC(=O)c2cccs2)sc2c1CCN(C(=O)OCC)C2`, for which the half-maximal activity concentration (AC50) is 10 µM [rising, partial curve].

For the compound `COc1ccc(-c2c3c(=O)n(C)c(=O)n(C)c3cn2-c2cc(OC)ccc2OC)cc1`, the AC50 is 10 µM [rising, single point].

Take `COC(=O)[C@@H]1[C@@H]2C[C@H]3c4[nH]c5ccccc5c4CCN3C[C@@H]2CC[C@@H]1O`: the concentration at half-maximal activity (AC50) is 25.1 µM [falling, single point] and 25.1 µM [falling, partial curve, poor fit].

Regarding `COc1ccc(S(=O)(=O)n2nc(OC(=O)c3ccco3)cc2N)cc1`, the AC50 is 12.6 µM [falling, single point].

For the compound `CC1(C)Cc2c(sc3c2c(=N)n(Cc2ccco2)c(=O)n3Cc2ccc(F)cc2)CO1`, the AC50 was 0.794 µM [rising, full curve, poor fit].

`Cc1ccc(-n2c(SCC3CCCCO3)nnc2-c2ccco2)cc1` (stereo unspecified): the AC50 is 0.00398 µM [falling, full curve, poor fit].

For `O=C(NCc1ccccc1)c1c[nH]c2ccc(S(=O)(=O)Nc3ccc4c(c3)OCCO4)cc2c1=O`, the AC50 was 5.01 µM [falling, partial curve].

`COC(=O)c1cc(-c2ccc(OC)c(OC)c2)on1`: the AC50 is 12.6 µM [rising, partial curve].

For `CCCc1cc(-c2ccc(O)c(OCC)c2)c(C#N)c(N)n1`, the AC50 was 1.58 µM [rising, full curve].

Consider `COCCn1c(=O)c(-c2ccc(Cl)cc2)nc2cnc(OCc3ccccc3)nc21`, for which the AC50 was 12.6 µM [rising, partial curve, poor fit].

In the case of `Cc1nn(Cc2ccccc2Cl)c(C)c1N`, the AC50 is 0.00316 µM [falling, full curve, poor fit].

As to `CCOc1ccc(Cc2nc(C)c(CC(=O)N3CCOCC3)c(=O)[nH]2)cc1`, the AC50 is 0.158 µM [falling, full curve].

As to `COC(=O)c1ccc(Oc2nc(C)cc(Oc3ccccc3)n2)cc1`, the half-maximal activity concentration (AC50) was 15.8 µM [rising, single point].

For the compound `Cc1ccc2nc(NC(=O)CN(C)S(=O)(=O)c3cccc4nsnc34)sc2c1`, the AC50 is 2.51 µM [rising, single point].

With `CN1CCN(c2nc(-c3cccc(NS(C)(=O)=O)c3)nc3ccccc23)CC1`, the AC50 was 25.1 µM [rising, single point].

Turning to `COc1cc(NC(=O)c2ccco2)c(OC)cc1NC(=O)c1cc(OC)c(OC)c(OC)c1`, the half-maximal activity concentration (AC50) was 2.51 µM [rising, full curve].

`CCOC(=O)c1cc2c(=O)n3cccc(C)c3nc2n(CC2CCCO2)c1=NC(C)=O` (stereo unspecified): the AC50 is 3.98 µM [rising, partial curve].

For the compound `COC(=O)c1[nH]c2c(c1C)C(=O)CC(c1cc(OC)ccc1OC)C2` (stereo unspecified), the AC50 is 12.6 µM [rising, partial curve].

Regarding `C=CCn1c(=O)c2ccccc2n2c(SCc3csc(-c4ccccc4)n3)nnc12`, the AC50 was 3.98 µM [rising, single point].

Consider `CCOC(=O)c1c(NC(=O)CSc2nnc(-c3ccco3)o2)sc(C(C)=O)c1C`, for which the AC50 is 25.1 µM [rising, single point].

As for `CCOC(=O)c1sc(NC(=S)n2cc(C)cn2)c(C(=O)OCC)c1C`, the AC50 is 12.6 µM [rising, single point].

Consider `CC1(C)CN=C(N2CCN(c3ncnc4sc5c(c34)CCCC5)CC2)S1`, for which the AC50 was 0.398 µM [rising, partial curve].

For the compound `O=C(c1ccco1)N1CCN(C(=O)C2CCN(S(=O)(=O)c3cccs3)CC2)CC1`, the AC50 was 0.2 µM [falling, full curve, poor fit].

With `COc1cccc(Cn2c(=O)c(-c3cccs3)nc3cncnc32)c1`, the AC50 was 7.94 µM [rising, partial curve].

As to `c1nc(N2CCOCC2)c2cc(-c3ccoc3)ccc2n1`, the AC50 was 0.251 µM [falling, full curve].

As to `CC1Cc2ccccc2N1C(=O)Cn1c(=O)oc2cc(S(=O)(=O)NC3CCCC3)ccc21` (stereo unspecified), the AC50 is 12.6 µM [falling, single point].

In the case of `O=C(CCN1Cc2ccccc2C1)c1ccc2c(c1)OCCO2`, the AC50 was 25.1 µM [falling, single point].

As to `O=S(=O)(Nc1ccc(N2CCCCC2)cc1)c1cccs1`, the half-maximal activity concentration (AC50) was 5.01 µM [falling, single point].

Consider `Nc1nc(CSc2n[nH]c(-c3ccccc3)n2)nc(Nc2ccccc2)n1`, for which the concentration at half-maximal activity (AC50) was 1.58 µM [rising, partial curve].

As to `N#Cc1cccc(NC(=O)CC2CCCCC2)c1`, the AC50 is 0.00398 µM [falling, full curve, poor fit].

Consider `Cc1cc(C)n(-c2nc3ccccc3nc2N2CCN(C(=O)c3ccc(F)cc3)CC2)n1`, for which the AC50 is 25.1 µM [rising, partial curve].

Consider `COc1ccc(-c2nc3cnc(N4CCOCC4)nc3n(Cc3cccs3)c2=O)cc1`, for which the half-maximal activity concentration (AC50) is 3.16 µM [rising, full curve].

`COc1ccccc1N1CCN(CCN2C(=O)c3ccccc3C(C)(C)C2=O)CC1`: the concentration at half-maximal activity (AC50) was 0.0158 µM [rising, full curve, poor fit].

On to `O=C(NCc1ccco1)C(Cc1ccccc1)N1C(=O)C2C3C=CC(C3)C2C1=O` (stereo unspecified), for which the AC50 is 3.98 µM [falling, single point].

`CCc1nnc(NC(=O)CC(=O)Nc2ccccc2C(=O)O)s1`: the AC50 was 2.51 µM [rising, single point].

As for `CCc1cc(Br)ccc1N1C(=O)C2CC=CCC2C1=O` (stereo unspecified), the concentration at half-maximal activity (AC50) was 0.00316 µM [falling, full curve, poor fit].

As to `CCOC(=O)c1csc(Nc2nc3ccc(F)cc3s2)n1`, the concentration at half-maximal activity (AC50) was 31.6 µM [falling, single point].

`C=C1C(CCl)(CCl)C2(Cl)C(Cl)C(Cl)C1(Cl)C2(Cl)Cl` (stereo unspecified): the half-maximal activity concentration (AC50) was 3.98 µM [rising, partial curve].

Take `O=c1cc(CN2CCC3(CC2)OCCO3)c2c(ccc3ccccc32)o1`: the AC50 is 5.01 µM [rising, partial curve].

In the case of `COc1cccc(-c2csc(N3CCN(CC(=O)Nc4ccc5c(c4)OCO5)CC3)n2)c1`, the half-maximal activity concentration (AC50) was 10 µM [falling, single point].
